Some results were stated once for a whole list of compounds, not compound by compound. At least one compound was matched to its structure with a doubt left.
Experiments:
Format in all cases: in vivo
[1] = test system: silverleaf whitefly (Bemisia argentifolii (Bellows and Perring)); assay: Test F: control of silverleaf whitefly on sprayed soybean plant; conditions: pre-infested (oviposition), 12 days
Description: (§1) Test compounds were formulated using a solution containing 10% acetone, 90% water and 300 ppm Activator 90@ non-ionic surfactant (Loveland Products, Loveland, Colorado, USA). The formulated compounds were applied in 1 mL of liquid through an atomized nozzle positioned 1.27 cm (0.5 inches) above the top of each test unit. Test compounds were sprayed at the rates indicated, and each test was replicated three times.
For evaluating control of silverleaf whitefly (Bemisia argentifolii (Bellows and Perring)) through contact and/or systemic means, each test unit consisted of a small open container with a 5-7 day old soybean plant inside. This was pre-infested by placing test units into cages containing adult whiteflies so that oviposition on the leaves could occur. The adults were removed from the plants with an air-blast nozzle, and the test units were capped. The test units were then stored 2 to 3 days before spraying.
Test compounds were formulated and sprayed at 250 and 50 ppm. After spraying, the test units were maintained in a growth chamber for 12 days at 23° C. and 70% relative humidity. Each test unit was then visually assessed for insect mortality.

[2] = test system: cotton melon aphid (Aphis gossypii (Glover)); assay: Test E: control of cotton melon aphid on sprayed okra plant; conditions: pre-infested, 6 days
Description: as §1
For evaluating control of cotton melon aphid (Aphis gossypii (Glover)) through contact and/or systemic means, the test unit consisted of a small open container with a 5-day-old okra plant inside. This was pre-infested with 30-40 insects on a piece of leaf according to the cut-leaf method, and the soil of the test unit was covered with a layer of sand.
Test compounds were formulated and sprayed at 250, 50, 10 and 2 ppm. After spraying, the test units were maintained in a growth chamber for 6 days at 19° C. and 70% relative humidity. Each test unit was then visually assessed for insect mortality.

[3] = test system: Green Peach Aphid (Myzus persicae (Sulzer)); assay: Test D: control of Green Peach Aphid on sprayed radish plant; conditions: pre-infested, 6 days
Description: as §1
For evaluating control of Green Peach Aphid (Myzus persicae (Sulzer)) through contact and/or systemic means, the test unit consisted of a small open container with a 12-15-day-old radish plant inside. Prior to compound application, each test unit was pre-infested by placing on a leaf of the test plant 30-40 aphids on a piece of leaf excised from a culture plant (cut-leaf method). The aphids moved onto the test plant as the leaf piece desiccated. After pre-infestation, the soil of the test unit was covered with a layer of sand.
Test compounds were formulated and sprayed at 250 and 50 ppm. After spraying of the formulated test compound, each test unit was allowed to dry for 1 hour and then a black, screened cap was placed on top. The test units were held for 6 days in a growth chamber at 19-21° C. and 50-70% relative humidity. Each test unit was then visually assessed for insect mortality.

[4] = test system: Potato Leafhopper (Empoasca fabae (Harris)); assay: Test C: control of Potato Leafhopper on sprayed bean plant; conditions: sprayed at 250 ppm; adults; 6 days
Description: as §1
For evaluating control of Potato Leafhopper (Empoasca fabae (Harris)) through contact and/or systemic means, the test unit consisted of a small open container with a 5-6-day-old bean plant inside. White sand was added to the top of the soil, and one of the primary leaves was excised prior to application of the test compound.
Test compounds were formulated and sprayed at 250 and 50 ppm. After spraying of the formulated test compound, the test units were allowed to dry for 1 hour before they were post-infested with 5 potato leafhoppers (18-to-21-day-old adults). A black, screened cap was placed on the top of the test unit, and the test units were held for 6 days in a growth chamber at 20° C. and 70% relative humidity. Each test unit was then visually assessed for insect mortality.

| SMILES | mortality ([1]; sprayed at 50 ppm) | mortality ([1]; sprayed at 250 ppm) | also measured |
| --- | --- | --- | --- |
| CCC#CCn1ncc(-c2cc(Cl)cc(Cl)c2)n1 [Compound 199] | at least 50% |  | mortality ([2]; sprayed at 50 ppm): at least 80% |
| CCC#CCn1nnc(-c2cccc(OC(F)(F)F)c2)n1 [Compound 49] |  |  | mortality ([3]; sprayed at 50 ppm): at least 80%; mortality ([2]; sprayed at 10 ppm): at least 80% |
| CCC#CCn1nnc(-c2cc(F)cc(C#N)c2)n1 [Compound 180] |  |  | mortality ([3]; sprayed at 250 ppm): at least 80%; mortality ([2]; sprayed at 50 ppm): at least 80% |
| CCC#CCn1nnc(-c2ccc(C)c(C(F)(F)F)c2)n1 [Compound 323] |  | at least 50% |  |
| CCC#CCn1nnc(-c2ccc(C(F)(F)F)c(F)c2)n1 [Compound 192] | at least 50% |  |  |
| CCC#CCn1nnc(-c2ccc(C(F)(F)F)c(Cl)c2)n1 [Compound 191] | at least 50% |  |  |
| CCC#CCn1ncc(-c2cc(OC)cc(C(F)(F)F)c2)n1 [Compound 269] | at least 50% |  | mortality ([2]; sprayed at 250 ppm): at least 80% |
| CCC#CCn1nnc(-c2ccc(F)c(C)c2)n1 [Compound 153] |  | at least 50% |  |
| CCC#CCn1nnc(-c2ccc(C#N)c(C)c2)n1 [Compound 329] | at least 50% |  |  |
| CCC#CCn1nnc(-c2ccc(Cl)c(C)c2)n1 [Compound 145] | at least 50% |  |  |
| CCC#CCn1nnc(-c2ccc(Br)c(C(F)(F)F)c2)n1 [Compound 319] |  | at least 50% |  |
| CCC#CCn1nnc(-c2ccc(C)c(Br)c2)n1 [Compound 327] | at least 50% |  | mortality ([2]; sprayed at 50 ppm): at least 80% |
| CCC#CCn1nnc(-c2cccc(F)c2F)n1 [Compound 152] |  | at least 50% |  |
| CCC#CCn1nnc(-c2ccc(Br)c(F)c2)n1 [Compound 143] | at least 50% |  |  |
| CCC#CCn1nnc(-c2cncc(F)c2)n1 [Compound 172] |  |  | mortality [4]: at least 80% |
| CCC#CCn1nnc(-c2ccc(F)c(F)c2)n1 [Compound 142] |  | at least 50% |  |
| CCC#CCn1nnc(-c2cc(Cl)cc(Cl)c2)n1 [Compound 202] |  | at least 50% |  |
| CCC#CCn1nnc(-c2ccc(C)c(Cl)c2)n1 [Compound 309] | at least 50% |  |  |
| CCC#CCn1nnc(-c2ccc(Cl)c(Cl)c2)n1 [Compound 305] | at least 50% |  |  |
| CCC#CCn1nnc(-c2cccc(F)c2)n1 [Compound 50] |  |  | mortality ([3]; sprayed at 250 ppm): at least 80%; mortality ([2]; sprayed at 50 ppm): at least 80% |
| CCC#CCn1nnc(-c2ccc(C(F)(F)F)c(C#N)c2)n1 [Compound 326] |  |  | mortality ([3]; sprayed at 50 ppm): at least 80%; mortality ([2]; sprayed at 50 ppm): at least 80% |
| CCC#CCn1nnc(-c2ccc(Cl)c(Br)c2)n1 [Compound 330] |  | at least 50% |  |

From US20250002476A1, “AZOLE COMPOUNDS FOR CONTROLLING INVERTEBRATE PESTS” (FMC Corporation, priority 2021, published 2025)
